Assay results from patent US20010044102.

What was measured:
[1] = tested on: GST-C92 Myc/Max heterodimer; experiment: pull-down; settings: purified recombinant protein, protein details: GST on Myc C-terminal 92 aa (C92Myc), label: 32P end
[2] = tested on: c-Myc (pM21 expression); experiment: activity in cells; settings: luciferase, NIH 3T3, single site; protein in cells
[3] = tested on: c-Myc alone (no Max); experiment: EMSA; settings: Myc alone, purified recombinant protein
[4] = tested on: GST-C92 Myc/Max heterodimer; experiment: EMSA; settings: purified recombinant protein; protein details: GST on Myc C-terminal 92 aa (C92Myc)
[5] = Hinf I digest, glutathione sepharose, also EMSA (p109)

Row | Sequence | binding result [1, 5] | activity on this sequence [2] | binding result [4] | other results
1 | TGTGCGGCCACGTGTCGCGAGGCCCCG (double strand) [cdc25B Hinf I fragment with Myc site B1] | – | – | – | binding result ([1]; single cdc25B fragment bound, only site region sequence listed): binds
2 | GAGTCGGGATGAAAGTTGAACAGGACACTTTCTGCTTTTCAGAAGTTGGGAAACGCACAAGACATGTGCTTAGCAAACGGGATGCCAGAGATTGAAGGGAAAGTAGCTCTTCCGCGGGAAACACCGTGGGATGCATTTTTTGCTATCAGGAAAAGCCCAGGAAGCTTTCTGAAAGTTGGGTAAAAAGACCTGGCCTTAGGAAAGCAGCAGAGTGGACATCAGGAATGTGCACAGGGCGAGGGACTGAGATGATTTTACATAAACGCCAGGAAAGGAAATGCCATGGTCCTTTGTTGAGAAGGAACAAAGATCACAGCAAACGAAGATCCTGAGGATGGTTTAGAAAAGGGTGAAAGTGAGTGCCTAGAAGAGCCTGATTTTCCCGCGGGGGTAGATT (double strand) [cdc25A F2 fragment] | binds | active | – | –
3 | GGGCCTGCCATGTGCACCCCGCCCGGG (double strand) [MB1 (A1) oligo] | – | – | binds | binding result ([3]; no Max): no binding
4 | GCACAAGACATGTGCTTAGCAAACGGG (double strand) [MB2 (A2) oligo] | – | – | binds | binding result ([3]; similar results stated for MB2): no binding
5 | ACTACAGACACGTGCCACCACACCCAA (double strand) [MB3 (A3) oligo] | – | – | binds | binding result ([3]; similar results stated for MB3): no binding
6 | GAGTCGTGTTTGTGTTTGACCCGCGGGCGCCGGTGGCGGCGGCCGAGGCCGGTGTCGGCGGGGCGGGGCGGTCGCGGCGGAGGCAGAGGAAGAGGGAGCGGGAGCTCTGCGAGGCCGGGCGCCGCCATGGAACTAGGCCCGGAGCCCCCGCACCGCCGCCGCCTGCTCTTCGCCTGCAGCCCCCCTCCCGCGTCGCAGCCCGTCGTGAAGGCGCTATTTGGCGCTTCAGCCGCCGGGGGACTGTCGCCTGTCACCAACCTGACCGTCACTATGGACCAGCTGCAGGGTCTTGGCAGGTAAGGAGAGACCGCGGGCGGTGCTCCGGGCCCCTGGCCTCGGTGTCGGCCTTGGAGAGTTCAGGCCAGGAAACGGACCGGGAGAAGGGCGAGACCCGTCCGTCCGGGTTCGCCGCTCGGGGACAGCCGGGCTAGGGCCTGCCATGTGCACCCCGCCCGGGCGGAATGTTGGCCGGGAGAGGCCGTCGGGACTTCCAGGGGAAGAGGTGGAGATCCTTGGGCCTAAGCCCGACCAGGCCCCCC (double strand) [cdc25A F1 fragment] | binds | active | – | –

The exact form of at least one protein or probe is not confirmed. For some assays here: A negative result means that nothing was seen under these conditions.
